Experimental data taken from publication PMC5996148.
The other results are listed elsewhere or left out. For some of these results: The source does not settle which construct or isoform was used.

What was measured:
Assay in all cases: protein microarray (ProtoArray v5.0), streptavidin-Alexa Fluor 647
Details in all cases: 3'-biotin; 20 mM Tris (pH 7.5), 5 mM MgCl2, 100 mM KCl, 0.1% Tween-20, A/T-rich and random oligonucleotide blockers; temperature not stated; high values mean tight binding
[1] = system: Vesicle-trafficking protein SEC22b (human)
[2] = system: Visinin-like protein 1 (human)
[3] = system: Vitelline membrane outer layer protein 1 homolog (human)
[4] = system: WAS protein family homolog 1 (human)
WBP2 = molecular target: T1, WBP2 (UniProt Q969T9)
T1 sequence: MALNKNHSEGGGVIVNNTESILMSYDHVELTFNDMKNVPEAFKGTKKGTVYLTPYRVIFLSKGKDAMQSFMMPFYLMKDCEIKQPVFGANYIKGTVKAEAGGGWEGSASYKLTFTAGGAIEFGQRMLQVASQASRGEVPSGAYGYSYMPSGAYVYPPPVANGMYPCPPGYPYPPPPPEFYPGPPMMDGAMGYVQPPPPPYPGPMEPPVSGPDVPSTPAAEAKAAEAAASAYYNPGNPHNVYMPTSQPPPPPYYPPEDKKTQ

[5] = system: WD repeat-containing protein 55 (human)
[6] = system: WD repeat-containing protein mio (human)
WDFY1 (human) = system: WDFY1 (human)
WDFY3 (human) = system: WDFY3 (human)
WDR1 (human) = system: WDR1 (human)

GGGAGGCTGAGGCAGG [G4-1 biotinylated (PQS2)]
binding signal [1]: -0.352 z-score | binding signal [2]: -0.353 z-score | binding signal [3]: -0.319 z-score | binding signal [4]: -0.36 z-score | binding signal (WBP2): -0.345 z-score | binding signal [5]: -0.334 z-score | binding signal [6]: -0.236 z-score | binding signal (WDFY1 (human)): -0.347 z-score | binding signal (WDFY3 (human)): -0.314 z-score | binding signal (WDR1 (human)): -0.337 z-score
